Construct, isoform or probe ends are uncertain for at least one entry. For some assays here: A negative result means that nothing was seen under these conditions. For some assays here: Weaker means in comparison with the reference protein, sequence or condition of that experiment.
Columns and labels:
[1] = target: HNF-4 (purified from rat liver) (Rattus norvegicus) (UniProt P22449); test: EMSA; conditions: purified native protein, label: 32P
[2] = target: HNF-4 full length (pf7 cDNA) (Rattus norvegicus) (UniProt P22449); test: EMSA; conditions: protein translated in vitro, label: 32P
[3] = target: HNF-4 Hga I truncation C-terminal truncation (template cut at nt 1171) (Rattus norvegicus) (UniProt P22449); test: EMSA; conditions: protein translated in vitro, label: 32P
[4] = target: HNF-4 PflM I truncation (C-terminal 36 aa removed) C-terminal truncation, 36 aa shorter (template cut at nt 1309) (Rattus norvegicus) (UniProt P22449); test: EMSA; conditions: protein translated in vitro, label: 32P
[5] = target: HNF-4 (purified from rat liver) (Rattus norvegicus) (UniProt P22449); test: competition with a labelled probe; conditions: purified native protein
[6] = no better than unrelated oligo at 50-500-fold excess

Sequences of proteins named here, by UniProt entry; tags and fusion partners are left off. A change or cut given only in a name is not applied to a line headed by its entry.
UniProt P22449: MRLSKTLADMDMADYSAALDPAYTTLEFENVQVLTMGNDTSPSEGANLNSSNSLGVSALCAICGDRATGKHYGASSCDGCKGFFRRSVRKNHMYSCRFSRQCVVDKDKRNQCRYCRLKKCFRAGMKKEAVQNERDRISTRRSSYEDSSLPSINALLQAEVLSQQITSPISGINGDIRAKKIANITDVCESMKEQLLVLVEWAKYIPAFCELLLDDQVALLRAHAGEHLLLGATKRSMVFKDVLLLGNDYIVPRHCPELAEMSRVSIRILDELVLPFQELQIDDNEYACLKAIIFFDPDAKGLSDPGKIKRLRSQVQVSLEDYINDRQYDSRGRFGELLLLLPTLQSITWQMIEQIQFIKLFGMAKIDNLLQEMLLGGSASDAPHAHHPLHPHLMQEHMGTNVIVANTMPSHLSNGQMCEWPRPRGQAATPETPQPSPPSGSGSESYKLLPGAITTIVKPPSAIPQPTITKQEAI

## AGCAAACAGGGGCTAAGTCCACTGGCTG (double strand) [LF-A1]
[1]; signal stronger than HNF4P, somewhat lower affinity than APF1
  binding result: binds
[2]; stronger signal than HNF4P
  binding result: binds

## TCGAGCGCTGGGCAAAGGTCACCTGC (double strand) [APF1]
[1]; strongest: APF1 > -151 to -130 = HNF4P > HNF4D
  binding result: binds
[3]
  binding result: binds
[4]
  binding result: binds
[2]; sequence-specific, binds as homodimer
  binding result: binds

## AGCTCTCAGAACACTGTGTTCTGA (double strand) [GRE]
[5]; [6]
  binding result: no binding

## TCGACTCTCTGCAAGGGTCATCAGTAC (double strand) [HNF4D]
[1]; weakest of the four HNF-4 sites
  binding result: binds more weakly

## AGCTCTCAGGTCATGACCTGA (double strand) [TRE]
[5]; [6]
  binding result: no binding

## TCGAGGCAAGGTTCATATTTGTGTAG (double strand) [-151 to -130 TTR]
[1]; weaker than APF1, equal to HNF4P
  binding result: binds
[2]; co-translation with truncations gives heterodimer bands, gel not shown
  binding result: binds

## GATCCTCGGGAAAGGGAAACCGAAACTGAAGCC (double strand) [015]
[5]; unrelated competitor control
  binding result: no binding

## AGCTCTCAGGTCACTGTGACCTGA (double strand) [ERE]
[5]; competes -151 to -130 probe only slightly better than unrelated oligo, 50-500-fold excess, much less than HNF4D
  binding result: binds more weakly

## TCGACCCTAGGCAAGGTTCATATGGCC (double strand) [HNF4P]
[1]; weaker than APF1
  binding result: binds
[3]; gel not shown
  binding result: binds
[4]; gel not shown
  binding result: binds
[2]
  binding result: binds

Source: patent publication US20030108912, “Liver enriched transcription factor” (published 2003)
